# This is one part of the list. These are further read-outs of the screen, such as a control signal, another cell line or another target. No call is given for them. Most of these compounds were active or inconclusive in the main read-out, so they are no random draw. Potencies come from curve fits of mixed quality, noted in brackets.
# Assay: qHTS Assay for Lipid Storage Modulators in Drosophila S3 Cells;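 on cell number change: cells counted by Cell Tracker Red CMTPX staining in the red channel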
# Settings: BODIPY lipid droplet fluorescence, 18-24 h; for cell number change: measured here: cell count max response, cells fed with added oleic acid
# In short: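 Drosophila S3 cells loaded with oleic acid (400 uM, as added) and compounds at several concentrations; lipid droplets imaged by 488-nm laser-scanning cytometry, 500–530 nm intensity and object ratio to cell channel. Percent activity normalized to 20 uM Triacsin C.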
# [1] = measured here: lipid fluorescence (Fed channel) AC50, cells fed with added oleic acid
# [2] = measured here: cell number channel AC50, cells fed with added oleic acid
SMILES,AC50 [1],cell number change [%],AC50 [2]
O=C1CC(c2ccco2)CC(O)=C1C=Nc1cc(Cl)cc(Cl)c1 (centres undefined),"23100 nM [falling, partial curve]",,
COc1ccc(N2CCCC2=N)c(OC)c1,"4.61 nM [falling, full curve, poor fit]",10.9,
Cn1c(=O)oc2cc(S(=O)(=O)N3CCC(C(=O)Nc4ccc(OC(F)(F)F)cc4)CC3)ccc21,"6510 nM [rising, partial curve, poor fit]",,
S=c1nccc(-c2ccc3c(c2)CCO3)[nH]1,"6510 nM [rising, single point]",4.83,
CC(=O)c1cccc(S(=O)(=O)N2CCC(c3nc4ccccc4[nH]3)CC2)c1,"580 nM [rising, single point]",5.65,
Cc1ccnc(SCC(=O)N2CCc3ccccc32)n1,"116 nM [rising, single point]",5.13,"58 nM [rising, full curve, poor fit]"
CSc1ccccc1NC(=O)c1cc(C2CC2)on1,,29.5,
CCC(=O)N(C)CCc1cc2c(c(OC)c1/C=N/Nc1ccc(C(=O)O)cc1)OCO2,"580 nM [rising, full curve]",21.4,
O=C(CNC(=O)c1ccc(Cl)cc1Cl)OCC(=O)N1CCCC1=O,"29100 nM [rising, single point]",-0.453,
O=C(O)CCn1cc(/C=N/O)c(-c2cccc([N+](=O)[O-])c2)n1,,22.5,"6510 nM [rising, single point]"
CC(C)n1c(/C=C/[C@H](O)C[C@H](O)CC(=O)O)c(-c2ccc(F)cc2)c2ccccc21,"6510 nM [falling, single point]",-18.9,
COc1ccc2c(C)cc(SCC(=O)N(C)C3CCS(=O)(=O)C3)nc2c1 (centres undefined),"517 nM [rising, full curve]",68.3,"5170 nM [rising, full curve]"
COc1cccc(NC(=O)CN(c2ccc(C)cc2)S(=O)(=O)c2c(C)nn(C)c2C)c1,,3.04,
CCCCn1c(SCC(=O)Nc2cc(C(F)(F)F)ccc2Cl)nnc1C(CC)N(C)C (centres undefined),"116 nM [rising, full curve, poor fit]",-11.1,"103 nM [rising, full curve, poor fit]"
CCn1c(C(=O)NC2CCC(C)CC2)cc2sccc21 (centres undefined),"6510 nM [rising, partial curve]",5.85,
O=C(NCCCNC(=O)c1ccccc1Cl)c1cnccn1,"164 nM [rising, full curve]",0.901,
CC1=C([N+](=O)[O-])C(c2ccccc2)C2=C(N1)c1ccccc1C2=O (centres undefined),"130 nM [rising, full curve, poor fit]",48.4,"580 nM [rising, full curve]"

# Two of these compounds, set out differently:
SMILES	AC50 [1]	cell number change [%]	AC50 [2]
O=C1CC(c2ccco2)CC(O)=C1C=Nc1cc(Cl)cc(Cl)c1 (centres undefined)	23100 nM [falling, partial curve]		
COc1ccc(N2CCCC2=N)c(OC)c1	4.61 nM [falling, full curve, poor fit]	10.9	
